## Primary screen of a compound library

Data taken from ChEMBL document CHEMBL3988442, “University of Dundee, Small-Polar-MMV Screening Library” (2021).

Each number is a percent effect as filed.
How 0% and 100% were set is not recorded. Most values in the screen are low, and negative values occur.
The compounds are a random part of those screened.
Two or more numbers in one place are separate tests of the same structure; such repeats can differ widely.

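Viability assay of Plasmodium falciparum sporozoites; the read-out is not stated. The concentration is filed as 10 mM, unlikely as a test dose, so the dose is not known. Direction is inferred from retests: higher values go with lower viability. Strong results were mostly tested again. Size under these conditions: about 34,000 compounds, about 280 of them at 50% or above in at least one test.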

| structure | Percent Effect |
|---|---|
| `O=C(COc1cccc(F)c1)N1C[C@@H](CN2CCCC2)C[C@H](CO)C1` | -1.81 |
| `Cc1ccsc1CN(Cc1nc2c(cnn2C)c(=O)[nH]1)C(C)C` | 3.484 |
| `CC(Cn1cccn1)NCc1cccc(C#N)c1` (centres undefined) | -2.632 |
| `Cc1cnn(C2CCCN(C(=O)CCCOc3cccc(F)c3)C2)c1` (centres undefined) | -17.42 |
| `Cl.O=C(CN1CCC[C@@H]1C(=O)O)NCCOc1cccc(C(F)(F)F)c1` | -4.973 |
| `CCOCC1CN(Cc2ccoc2)Cc2nn(CC3CC3)cc21.O=C(O)C(F)(F)F` (centres undefined) | -5.186 |
| `COC(=O)C(NC(=O)CCOC(C)C)c1cc(F)ccc1F` (centres undefined) | 10.47 |
| `COCc1ccc(C(=O)N2CCC(c3nccn3CC3CC3)CC2)o1` | 2.368 |
| `Cc1cccc(C(C(=O)NC(C)(C)CN2CCCC2)N(C)C)c1` (centres undefined) | 8.236 |
| `CC(C)(C)c1n[nH]cc1CN1CCc2nc3ccsc3c(=O)n2CC1` | -5.806 |
| `CCOc1ccccc1CNCC1CCN(CC(C)O)CC1` (centres undefined) | 8.162 |
| `O=C(NCCNC1CCCCC1)c1cccs1` | 1.34 |
| `COc1ccccc1CC(=O)N1CCN(Cc2ccco2)C[C@@H]1C` | 7.057 |
| `O=C(NC1CC1)c1ccc2ccc(N3CCN(CC4CC4)CC3)n2c1` | 2.148 |
| `Fc1ccc(CN2CCC3(CC2)CC(c2cccnc2)CO3)cc1.O=C(O)C(F)(F)F.O=C(O)C(F)(F)F` (centres undefined) | 7.982 |
| `[H][C@@]12CCN(S(=O)(=O)c3ccccc3F)C[C@]1(C(=O)NC)CCO2` | -11.89 |
| `[H][C@]12CCN(C(=O)c3ccoc3)[C@@]1([H])CC[C@@H](COCc1ccccn1)O2` | -18.51 |
| `CC(=O)N1CCCC2(CCC(=O)N2Cc2cccnc2)C1.O=C(O)C(F)(F)F` (centres undefined) | 15.67 |
| `CNC(=O)CCCNCc1c(C(C)C)nn(C)c1N(C)C` | -7.09 |
| `CCc1ncc2c(n1)CN(CC(=O)Nc1ccncc1)CC2` | 4.523 |
| `Cc1nccn1CC1CCCN1S(=O)(=O)Cc1cccc(F)c1` (centres undefined) | 13.64 |
| `O=C(O)C(F)(F)F.[H][C@@]12CCN(C3CCCCC3)[C@]1([H])CC[C@H](C(=O)N1CCOCC1)O2` | 4.195 |
| `CC(C)Nc1nc(-c2ccccc2)nc2c1CCN(C(=O)CC#N)CC2` | 12.72 |
| `CCOCCn1nc(C2CCNCC2)n(Cc2ccccc2)c1=O` | -16.87 |
| `O=c1oc(-c2cccs2)nn1CC(O)c1ccc(F)cc1` (centres undefined) | -0.2146 |
| `CC(C)c1nnc(CNc2ccc(SC(F)(F)F)cc2)o1` | 0.5329 |
| `O=C(N[C@H]1CCCC[C@@H]1O)c1cccc(-c2nc3ccccc3[nH]2)c1` | -0.3012 |
| `CCCC1c2cccn2CCN1S(=O)(=O)N1CCOCC1` (centres undefined) | -6.016 |
| `CN(C(=O)NCCN1CCOCC1)C1CCN(c2ccccc2)C1=O` (centres undefined) | 0.4571 |
| `O=C(O)C(F)(F)F.[H][C@@]12CCN(Cc3ccco3)C[C@@]1([H])O[C@H](C(=O)NCC1CCOCC1)C2` | 7.035 |
| `COC(=O)CCC(=O)N1CCC2(CN(Cc3cccc(Cl)c3)C2)C1` | -0.2604 |
| `Cc1nc(C)n(CC2CCCN2Cc2ncc(C(C)(C)C)o2)n1` (centres undefined) | -1.301 |
| `COc1c(Cl)cccc1NCc1csc(C)n1` | -14.21 |
| `O=C(O)C(F)(F)F.[H][C@]12C[C@H](C(=O)NCC3CC3)N(C(C)=O)[C@@]1([H])CN(Cc1nccs1)C2` | 11.19 |
| `Cc1nncn1CCNC(=O)C(C)(C)c1cccc(Cl)c1` | -6.34 |
| `CCc1nc(C)cn1C(=O)Nc1ccc(C)cc1` | -15.6 |
| `c1ccc(-n2cc(CN3CCCC3Cn3cncn3)nn2)cc1` (centres undefined) | 6.662 |
| `CC(C)c1nc(CC(=O)N2CCCC(n3cncn3)C2)cs1` (centres undefined) | 18.04 |
| `Cc1nccn1C1CCCN(C(=O)c2cccc(-n3cccc3)c2)C1` (centres undefined) | -2.489 |
| `Cc1ncsc1C(=O)NCCN1CCCCCC1=O` | 3.76 |
| `N#Cc1cn(C2CC2)c(=O)n(CC(O)c2ccc(OC(F)F)cc2)c1=O` (centres undefined) | -17.48 |
| `CC(C)NC(=O)C1CN(C(=O)Nc2ccc(F)cc2)CC12CCOCC2` (centres undefined) | -6.778 |
| `Cn1cc(CN2CCC(Cn3cc(-c4ccccc4)nn3)CC2)cn1` | 3.333 |
| `COc1cccc2c1OCC(C(=O)N1CCN(S(=O)(=O)N(C)C)CC1)C2` (centres undefined) | -3.07 |
| `CC(=O)N1CCCC1c1cccc(NCc2ccccc2F)n1` (centres undefined) | 5.888 |
| `Cc1c(C(=O)O)nnn1-c1cccc2cccnc12` | 6.037 |
| `CCC(C)C(=O)Nc1ccc(CCN2CCOCC2)cc1` (centres undefined) | -4.834 |
| `Cc1nc(N2CCCC2)ncc1-c1cc(O)nc(N2CCCC2)n1` | -4.386 |
| `CNC(=O)c1cn[nH]c1C1CCN(Cc2ccccc2OC)C1` (centres undefined) | 2.15 |
| `CC1CN(Cc2cc(C#N)ccc2F)CCN1Cc1nccn1C` (centres undefined) | -14.21 |
| `CCS(=O)(=O)c1ccccc1C(=O)N1CCCC(n2cccn2)C1` (centres undefined) | 4.522 |
| `O=c1cc(C2CCNCC2)nc(CCCc2ccccc2)[nH]1` | -13.49 |
| `Cc1n[nH]c(C2CN(C(=O)c3cc4c(s3)CCCC4)CCO2)n1` (centres undefined) | 11.47 & -8.902 & 7.352 |
| `NC(=O)C1(Cc2ccc(-c3ccccc3)cc2)CCNC1` (centres undefined) | -3.122 |
| `COc1ccc(CCNCc2c(C)nn(C)c2N(C)C)cc1OC.Cl` | -3.413 |
| `O=C(O)c1cc(NS(=O)(=O)c2ccccc2F)ccc1N1CCSCC1` | 9.298 |
| `CNc1cc2c(nn1)CCN(C(=O)c1ccoc1)C2` | -4.393 |
| `CC(=O)Cn1c(C)cc(=O)c2cc(F)ccc21` | 0.08651 |
| `[H][C@]12C[C@H](C(=O)NC)N(C)[C@@]1([H])CN(C(=O)c1cncc(C)c1)C2` | -3.833 |
| `[H][C@@]12C[C@@H](O)C[C@]1([H])CN(Cc1cc(C(C)(C)C)ccc1OCC(N)=O)C2` | 10.85 |
| `O=C1COC2(CCN(C(=O)[C@H]3CCCO3)CC2)CN1Cc1ccccn1` | -7.797 |
| `O=C1CCCCN1c1cccc(CNC2CCCC2)c1` | -3.699 |
| `CS(=O)(=O)NC1CCCN(C(=O)NCc2ccccc2Cl)C1` (centres undefined) | 11.26 |
| `OCCn1cc(CN2CCN(CCOc3ccccc3)CC2)cn1` | -12.45 |
| `CN1C(=O)CC(c2cnn(C)c2)C12CCN(C(=O)c1ccnnc1)CC2` (centres undefined) | -7.015 |
| `C=C(Cl)CN1CCC(C(=O)c2cc(F)ccc2F)CC1` | -7.09 |
| `[H][C@]12CC[C@]([H])(CN(S(=O)(=O)c3cccc(Cl)c3)C1)N(CCC)C2=O` | 12.02 |
| `Cc1cc(=O)n(CC(=O)Nc2cccc(Cl)c2)nc1C` | -1.316 |
| `COCc1cnc2n1CCN(C(=O)c1ccc3ccccc3n1)C2C.O=C(O)C(F)(F)F` (centres undefined) | 8.944 |
| `CNc1ncc(CN(C)CCN2CCCCC2)cn1` | 7.879 |
| `COCC(=O)N1C[C@@H](c2cc(O)nc(C)n2)[C@H](c2ccccc2F)C1` | -1.9 |
| `Cc1cnn(CC2CN(Cc3nc4ccccc4c(=O)[nH]3)CCO2)c1` (centres undefined) | 0.7143 |
| `COC(=O)COn1c(SC)nc2ccccc2c1=O` | 5.177 |
| `O=C(c1ccc[nH]1)N1CCOCC2(C1)CN(c1ccccc1)C(=O)CO2` (centres undefined) | -38.61 & 14.67 & -23.92 |
| `COc1ccc(CN(C)[C@@H]2CN(C(=O)c3cnn(C)c3)C[C@H]2O)cc1` | 2.355 |
| `COCC1CC2(CCN(C(=O)c3occc3C)CC2)CN1C(C)C.O=C(O)C(F)(F)F` (centres undefined) | 11.73 |
| `NC(=O)C1CCN(C(=O)c2ccn(-c3cccc(F)c3)n2)C1` (centres undefined) | 12.84 |
| `Cc1nccn1[C@@H]1CC[C@@H](N(C)S(=O)(=O)c2cccc(F)c2)[C@H]1O` | -2.952 |
| `O=C(c1ccc(Cn2cc(Br)cn2)cc1)N1CCCC1` | 15.23 |
| `CN(C)C(=O)CS(=O)(=O)Cc1cc(Cl)c2c(c1)OCCCO2` | 4.645 |
| `CCOc1ncccc1NC(=O)N1CCCCCC1` | -7.602 |
| `CN(C)c1nc(CNC(=O)NC2CCc3ccccc32)cs1` (centres undefined) | 2.081 |
| `O=C(Cc1cccnc1)N1CCCC2(CCN(CC3CCOCC3)C2)C1` (centres undefined) | -3.589 |
| `COCCNC(=O)c1ccc2c(=O)n3c(nc2c1)CCN(C)CC3` | 13.93 |
| `Cc1cc(S(=O)(=O)NC(=O)CCc2cccnc2)c(C)s1` | 2.738 |
| `c1ccc(-c2cnc(CNC3CCc4ncnn4C3)o2)cc1` (centres undefined) | 1.741 |
| `N#CCCNC(=O)c1ccn(-c2ccc3ccccn23)n1` | -15.33 |
| `Cn1cnnc1C1CCN(C(=O)c2cc3c(s2)CCC3)CC1` | 10.4 |
| `Cn1nc(CNC(=O)c2ccc3nsnc3c2)c2c1CCOC2` | 7.431 |

Once more, the final 5:

structure	Percent Effect
Cc1cc(S(=O)(=O)NC(=O)CCc2cccnc2)c(C)s1	2.738
c1ccc(-c2cnc(CNC3CCc4ncnn4C3)o2)cc1 (centres undefined)	1.741
N#CCCNC(=O)c1ccn(-c2ccc3ccccn23)n1	-15.33
Cn1cnnc1C1CCN(C(=O)c2cc3c(s2)CCC3)CC1	10.4
Cn1nc(CNC(=O)c2ccc3nsnc3c2)c2c1CCOC2	7.431